Reference: US20170100454A1 (VANDERBILT UNIVERSITY, published 2017)
Results are given in words; binding and its absence hold for the method and conditions named. Binding seen in cells or lysates may run through a third protein. Some results given as binding are weak or reduced against the parent protein; the word gives no strength.

Amino acid sequences for entries named in this document (tags omitted). A change or cut given only in a name is not applied to a line headed by its entry.
UniProt P52294: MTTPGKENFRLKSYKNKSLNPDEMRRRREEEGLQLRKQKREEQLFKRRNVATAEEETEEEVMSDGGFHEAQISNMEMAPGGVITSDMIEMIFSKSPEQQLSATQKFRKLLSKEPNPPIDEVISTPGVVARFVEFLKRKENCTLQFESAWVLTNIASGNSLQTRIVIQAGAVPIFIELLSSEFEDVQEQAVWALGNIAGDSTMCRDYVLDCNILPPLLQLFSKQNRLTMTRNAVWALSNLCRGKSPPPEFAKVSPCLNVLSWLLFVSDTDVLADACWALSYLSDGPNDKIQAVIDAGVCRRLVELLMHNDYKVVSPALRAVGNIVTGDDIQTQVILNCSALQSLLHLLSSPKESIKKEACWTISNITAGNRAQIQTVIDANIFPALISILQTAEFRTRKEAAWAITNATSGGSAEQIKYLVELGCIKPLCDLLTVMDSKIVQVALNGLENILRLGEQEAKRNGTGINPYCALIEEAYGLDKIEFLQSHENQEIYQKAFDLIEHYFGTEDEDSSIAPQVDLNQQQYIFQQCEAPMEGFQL

Key:
[1] = target: T1, Endogenous human importin alpha 3 (human, UniProt O00629 2-521); assay: pull-down from whole cell lysates of three cell types, immunoblot
T1 construct: mature; also called Imp α3
T1 sequence (looked up): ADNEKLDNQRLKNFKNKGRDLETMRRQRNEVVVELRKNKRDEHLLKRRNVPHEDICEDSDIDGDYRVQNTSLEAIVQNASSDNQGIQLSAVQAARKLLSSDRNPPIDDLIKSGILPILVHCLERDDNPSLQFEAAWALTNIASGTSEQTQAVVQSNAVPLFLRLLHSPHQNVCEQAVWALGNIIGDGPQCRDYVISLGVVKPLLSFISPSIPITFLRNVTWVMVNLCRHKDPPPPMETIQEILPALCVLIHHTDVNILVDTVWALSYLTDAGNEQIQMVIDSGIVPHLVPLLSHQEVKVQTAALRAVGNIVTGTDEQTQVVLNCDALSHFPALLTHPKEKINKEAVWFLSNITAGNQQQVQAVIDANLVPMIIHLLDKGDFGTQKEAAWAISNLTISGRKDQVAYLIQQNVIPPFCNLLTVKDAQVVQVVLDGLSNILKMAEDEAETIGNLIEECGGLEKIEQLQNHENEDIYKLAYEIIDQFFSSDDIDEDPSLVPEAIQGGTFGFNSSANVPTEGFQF

[2] = target: T2, Endogenous human importin alpha 5 (human, UniProt P52294 1-529 at identity 1.00)); assay: as above
T2 construct: Endogenous protein in whole cell lysates, and in Hep-G2 cells for the functional rows; also called Imp α5; KPNA1

[3] = target: T1, Endogenous human importin alpha 3; assay: pull-down with biotinylated peptide and SA beads from whole cell lysates (Jurkat T, HeLa S3, EA.hy926), immunoblot
[4] = target: T2, Endogenous human importin alpha 5; assay: as above
[5] = target: T3, Endogenous human importin alpha 4 (human, UniProt O00505 2-521); assay: pull-down: biotinylated peptide in Jurkat T whole cell lysate, streptavidin-coated beads, immunoblot
T3 construct: mature; also called Imp α4
T3 sequence (looked up): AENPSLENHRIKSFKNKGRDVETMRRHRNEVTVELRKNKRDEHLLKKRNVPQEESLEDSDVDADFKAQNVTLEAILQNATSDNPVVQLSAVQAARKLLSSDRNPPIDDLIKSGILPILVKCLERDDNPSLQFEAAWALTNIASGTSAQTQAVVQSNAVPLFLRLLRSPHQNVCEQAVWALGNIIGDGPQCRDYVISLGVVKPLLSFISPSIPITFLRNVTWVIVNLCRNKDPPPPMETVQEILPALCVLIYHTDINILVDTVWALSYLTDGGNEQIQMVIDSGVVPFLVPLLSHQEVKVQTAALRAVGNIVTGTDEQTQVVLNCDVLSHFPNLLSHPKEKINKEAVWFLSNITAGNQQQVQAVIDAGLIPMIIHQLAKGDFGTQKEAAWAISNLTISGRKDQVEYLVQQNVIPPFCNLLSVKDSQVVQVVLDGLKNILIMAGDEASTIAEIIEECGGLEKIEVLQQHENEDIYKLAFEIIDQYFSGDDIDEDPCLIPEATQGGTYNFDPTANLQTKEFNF

[6] = target: T2, Endogenous human importin alpha 5; assay: as above
[7] = target: T1, Endogenous human importin alpha 3; assay: as above
[8] = target: T1, Endogenous human importin alpha 3; assay: pull-down with biotinylated peptide and SA beads from Jurkat T cell lysate, immunoblot (FIG. 7)
[9] = target: T3, Endogenous human importin alpha 4; assay: as above
[10] = target: T2, Endogenous human importin alpha 5; assay: as above
[11] = target: T4, Endogenous human importin alpha 7 (human, UniProt O60684 1-536); assay: as above
T4 construct: mature; also called Imp α7

Measured: binding

GGGGGVQRKRQKLMP (biotin at the NH2 terminus) [Biotinylated N50 peptide]
binds: [1] | [2] | [3] | [4]

LQLRKQKREEQLFKRRNVATA (biotinylated (position and linker not stated)) [Biotinylated AR5 peptide (auto-inhibitory region of Imp α5)]
binds: [5]

VELRKNKRDEHLLKRRNVPHE (biotinylated (position and linker not stated)) [Biotinylated AR3 peptide (auto-inhibitory region of Imp α3)]
binds: [5] | [6] | [7]

VELRKNKRDEHLLKKRNVPQE (biotinylated (position and linker not stated)) [Biotinylated AR4 peptide (auto-inhibitory region of Imp α4)]
binds: [5] | [6] | [7]

IQLRKQKREQQLFKRRNVELI (biotinylated (position and linker not stated)) [Biotinylated AR7 peptide (auto-inhibitory region of Imp α7)]
binds: [8] | [9] | [10] | [11]
